# Source: PubChem BioAssay AID540276 (National Center for Advancing Translational Sciences (NCATS), 2011)
# The whole screen tested about 300,000 compounds, of which about 5,400 (1.8%) were called active. The inconclusive results got no clear call from the source; some entries with a clear call stand among them for comparison. The call rests on the fitted dose curve; tested in HEK293 cells. Where the call is inconclusive, the potency comes from a doubtful curve fit.
# Assay: qHTS for inhibitors of binding or entry into cells for Marburg Virus
# Details: Marburg virus pseudotyped entry inhibition, cell reporter; activity change, negative = inhibition: at 37.8 µM (top of the series) unless noted
# On the % scale 0 is the no-effect control and ±100 the full control effect; potency means the concentration at half of the fitted maximal effect.
SMILES,Potency,"activity change, negative = inhibition"
Cc1oc(/C=N/NS(=O)(=O)c2ccccc2)cc1Br,"inconclusive: 0.562 µM [activator, single point]",
COc1ccc(CNC(=O)CCSc2ccc(F)cc2)cc1OC,,inactive: 15.7%
CCCCNc1nc2ccccc2nc1NS(=O)(=O)c1cccs1,"inconclusive: 15.8 µM [inhibitor, single point]",
Cc1nn(Cc2c(F)c(F)c(F)c(F)c2F)c(C)c1NC(=O)c1ccc(COc2ccccc2Cl)o1,"inconclusive: 31.6 µM [inhibitor, partial curve, poor fit]",
COc1ccc(OC)c(CCNC(=O)c2csc3c2CCCCC3)c1,"inconclusive: 3.16 µM [inhibitor, full curve, poor fit]",
CC1CCN(C(=O)c2ccc(-c3ccccc3Cl)o2)CC1,"inconclusive: 12.6 µM [inhibitor, single point]",
COC(=O)c1ccccc1NC(=O)CSc1nnc(-c2cccnc2)o1,"inconclusive: 12.6 µM [activator, partial curve, poor fit]",
COc1ccc2nc(C)cc(Nc3ccccc3O)c2c1,"inconclusive: 23.1 µM [inhibitor, partial curve, poor fit]",
Cc1ccc(N(CC(O)CON=C2c3ccccc3-c3ccccc32)S(C)(=O)=O)cc1 (stereo unspecified),"inconclusive: 29.1 µM [inhibitor, single point]",
CCOc1ncccc1C(=O)N1CCN(c2ccc(C(F)(F)F)cn2)CC1,,inactive: 21.6% [at 46.1 µM]
CC(=O)Nc1ccc(C(=O)Cn2c3[n+](c4c(F)c(F)ccc42)CCCCC3)cc1,"inconclusive: 3.16 µM [activator, partial curve, poor fit]",
Cc1cccc(N=C2NC(=O)/C(=C/c3cccn3C)S2)c1C,active: 8.91 µM,
CCc1ccc(NCc2nc(-c3ccccc3)no2)cc1,"inconclusive: 10 µM [activator, partial curve, poor fit]",
Cc1ccc(S(=O)(=O)C2(S(=O)(=O)c3ccc(C)cc3)CC2)cc1,active: 11.2 µM,
c1ccc(NCCc2ccccn2)cc1,"inconclusive: 0.562 µM [activator, full curve, poor fit]",
COc1ccc(OC)c(-n2c(O)c(C=NCc3ccc4c(c3)OCO4)c(=O)[nH]c2=O)c1,,inactive: -12.1%
CCOc1cc(CNCc2ccccn2)ccc1OCC(=O)NC(C)(C)C,active: 7.08 µM,
COC(=O)c1ccc(CSc2nncn2N)cc1,"inconclusive: 0.251 µM [activator, partial curve, poor fit]",
Cc1cccc(CN2CCc3c([nH]c4ccccc34)C2)c1,"inconclusive: 14.1 µM [inhibitor, single point]",
CCC[N+]1(CC#CCC(c2ccccc2)c2ccccc2)CCCCC1,"inconclusive: 4.47 µM [inhibitor, full curve, poor fit]",
Nc1ccc(-n2nncc2-c2ccc(Cl)cc2)cc1,,inactive: 21.9%
O=C(CCC(=O)N1CCN(c2cccc(Cl)c2)CC1)c1cccs1,"inconclusive: 10 µM [inhibitor, partial curve, poor fit]",

# Among those listed so far, these have a halogen.
SMILES,Potency,"activity change, negative = inhibition"
Cc1oc(/C=N/NS(=O)(=O)c2ccccc2)cc1Br,"inconclusive: 0.562 µM [activator, single point]",
COc1ccc(CNC(=O)CCSc2ccc(F)cc2)cc1OC,,inactive: 15.7%
Cc1nn(Cc2c(F)c(F)c(F)c(F)c2F)c(C)c1NC(=O)c1ccc(COc2ccccc2Cl)o1,"inconclusive: 31.6 µM [inhibitor, partial curve, poor fit]",
CC1CCN(C(=O)c2ccc(-c3ccccc3Cl)o2)CC1,"inconclusive: 12.6 µM [inhibitor, single point]",
CCOc1ncccc1C(=O)N1CCN(c2ccc(C(F)(F)F)cn2)CC1,,inactive: 21.6% [at 46.1 µM]
CC(=O)Nc1ccc(C(=O)Cn2c3[n+](c4c(F)c(F)ccc42)CCCCC3)cc1,"inconclusive: 3.16 µM [activator, partial curve, poor fit]",
Nc1ccc(-n2nncc2-c2ccc(Cl)cc2)cc1,,inactive: 21.9%
O=C(CCC(=O)N1CCN(c2cccc(Cl)c2)CC1)c1cccs1,"inconclusive: 10 µM [inhibitor, partial curve, poor fit]",

# The list goes on:

SMILES,Potency,"activity change, negative = inhibition"
CCc1cccc2c(C(=O)COC(=O)c3nn(C)c(=O)c4ccccc34)c[nH]c12,"inconclusive: 35.5 µM [inhibitor, single point]",
CC1=C(C(=O)OCC(C)C)C(c2cc3c(cc2Br)OCO3)NC(=O)N1C (stereo unspecified),"inconclusive: 35.5 µM [inhibitor, single point]",
COc1cc(-c2noc(-c3ccco3)n2)cc(OC)c1OC,,inactive: -41.2%
COC(=O)Cn1c(=N)n(CCN2CCCCC2)c2ccccc21,,inactive: -0.353%
O=C1CCCN1CC(CN1CCOCC1)Sc1nc2ccccc2c(=O)n1-c1ccccc1 (stereo unspecified),"inconclusive: 8.91 µM [inhibitor, partial curve, poor fit]",
Cc1c(NC(=O)CCCN2C(=O)c3cccc4cccc(c34)C2=O)c(=O)n(-c2ccccc2)n1C,"inconclusive: 15.8 µM [activator, single point]",
COc1ccc(NC2=NCC(Cc3ccc(Br)cc3)S2)cc1 (stereo unspecified),"inconclusive: 8.91 µM [inhibitor, partial curve, poor fit]",
Cc1ccc2scc(CN3CCCC3)c2c1,"inconclusive: 3.16 µM [inhibitor, full curve]",
O=C(COc1ccc2ccccc2c1)N1CCN(C2CCN(Cc3ccccc3)CC2)CC1,"inconclusive: 29.1 µM [inhibitor, single point]",
CC(C)Cc1nc(Nc2ccc(S(=O)(=O)N3CCCC3)cc2)c2nnn(Cc3ccccc3)c2n1,"inconclusive: 10 µM [inhibitor, partial curve, poor fit]",
CCCCN(CC)CCCNC(=O)c1cc2c(=O)[nH]c3ccccc3c2s1,active: 7.08 µM,
O=C(NC1CCSC1=O)c1ccccc1 (stereo unspecified),"inconclusive: 3.66 µM [inhibitor, single point]",
COc1ccc(OCC(=O)NS(=O)(=O)c2ccccc2)cc1,"inconclusive: 35.5 µM [activator, single point]",
Cc1cc2nc(-c3ccc(NC(=O)C(C)C)cc3)oc2cc1C,"inconclusive: 0.316 µM [activator, partial curve, poor fit]",
COc1ccccc1C(=O)C1CCCN(Cc2ccc(Oc3ncccn3)cc2)C1 (stereo unspecified),"inconclusive: 35.5 µM [inhibitor, single point]",
COCCn1nnnc1C(c1cc2cc(OC)c(OC)cc2[nH]c1=O)N1CCN(c2ccc(O)cc2)CC1 (stereo unspecified),"inconclusive: 6.31 µM [activator, partial curve, poor fit]",
COc1cccc(NC(=O)CSc2nnc(-c3ccoc3C)n2-c2ccccc2)c1,"inconclusive: 17.8 µM [inhibitor, single point]",
Cc1ccc(C2CC(=O)C=C(NCC(C)C)C2)cc1 (stereo unspecified),,inactive: -10.2%
COC(=O)c1c(C)oc2ccc(NS(=O)(=O)c3cc(OC)ccc3OC)cc12,"inconclusive: 12.6 µM [inhibitor, partial curve, poor fit]",
CC(=O)C1=C(O)C(=O)N(c2ccc(O)cc2)C1c1ccc([N+](=O)[O-])cc1 (stereo unspecified),,inactive: 1.08% [at 46.1 µM]
Cc1cc(C)c(NS(=O)(=O)c2ccccc2)c(C)c1NS(=O)(=O)c1ccccc1,"inconclusive: 31.6 µM [inhibitor, partial curve, poor fit]",
COc1ccc(NC2=Nc3ccccc3N3C2=Nc2c(c(C)nn2-c2ccc(C)cc2)C3c2cccnc2)cc1 (stereo unspecified),,inactive: 2.8%

# Single entries from above.
# Potency with `CCC[N+]1(CC#CCC(c2ccccc2)c2ccccc2)CCCCC1` is entered as inconclusive: 4.47 µM [inhibitor, full curve, poor fit]
# Potency with `COc1ccccc1C(=O)C1CCCN(Cc2ccc(Oc3ncccn3)cc2)C1` (stereo unspecified) is entered as inconclusive: 35.5 µM [inhibitor, single point]

# The results go on.

SMILES,Potency,"activity change, negative = inhibition"
Cc1cc(C)c(NC(=S)NC(=O)c2ccc(-c3ccccc3)cc2)c(C)c1,"inconclusive: 5.01 µM [inhibitor, full curve, poor fit]",
CC(NC(=O)Nc1cccnc1)(C(F)(F)F)C(F)(F)F,,inactive: 4.71%
CCc1ccc2oc(C(=O)NCc3ccc(S(N)(=O)=O)cc3)c(C)c2c1,,inactive: 0.501% [at 46.1 µM]
c1cc(-c2sc(-c3ccncc3)c(-c3ccncc3)c2-c2ccncc2)ccn1,"inconclusive: 20 µM [inhibitor, partial curve, poor fit]",
Cc1ncsc1C(=O)NCc1ccc(N2CCCC2=O)cc1,"inconclusive: 0.517 µM [inhibitor, partial curve, poor fit]",
Cn1c(SCC#N)nnc1-c1cccnc1,"inconclusive: 5.62 µM [inhibitor, single point]",
CC(/C=C/c1ccccc1)=N\Nc1ccccc1[N+](=O)[O-],"inconclusive: 3.55 µM [activator, partial curve, poor fit]",
COc1ccc(N2CCN(C(=O)c3ccc(S(=O)(=O)N4CCCC4)cc3)CC2)cc1,"inconclusive: 7.08 µM [activator, partial curve, poor fit]",
COc1ccc2nc(NN=C(C)c3ccccn3)cc(C)c2c1,"inconclusive: 4.47 µM [inhibitor, full curve, poor fit]",
COC(=O)c1ccccc1NC(=O)Nc1nnc(N2CCC(C)CC2)s1,,inactive: -1.32% [at 46.1 µM]
Cn1c(=O)cc(Nc2ccc(Cl)cc2)[nH]c1=O,,inactive: -3.17% [at 46.1 µM]
CC(=O)N=c1scc(-c2ccccc2)n1-c1cccc(O)c1,"inconclusive: 3.16 µM [inhibitor, partial curve, poor fit]",
CCN(C(=O)CSc1nnc(-c2cccs2)n1N)c1c(N)n(Cc2ccccc2)c(=O)[nH]c1=O,"inconclusive: 0.447 µM [activator, single point]",
CCC(=O)N=c1n(C)c2ccccc2n1CCOc1ccccc1,"inconclusive: 0.112 µM [inhibitor, full curve, poor fit]",
C=CCn1c(SCc2cc(=O)n3ccsc3n2)nc2scc(C3CC3)c2c1=O,,inactive: -6.92%
Cc1ccc(C(=O)Nc2ccc(-c3nc4ccccc4s3)cc2C)cc1C,"inconclusive: 1.78 µM [activator, full curve]",
CN(C)c1cccc(C(=O)OCC(=O)NCc2ccco2)c1,,inactive: 14.7%
CCCCOc1ccc(C(=O)NCC2(c3ccc(OC)cc3)CCOCC2)cc1,"inconclusive: 31.6 µM [inhibitor, single point]",
CC(=O)N1CCN(CC(=O)Nc2ccccc2C(=O)NCc2ccc(C)cc2)CC1,"inconclusive: 3.16 µM [inhibitor, partial curve, poor fit]",
CCN(c1ccccc1)S(=O)(=O)c1ccc(Cl)c(NC(=O)CNCc2ccccc2OC)c1,"inconclusive: 12.6 µM [inhibitor, partial curve, poor fit]",
Cc1cccc(CC(=O)Nc2ccc(C(=O)N3CCCCC3)cc2)c1,"inconclusive: 4.47 µM [inhibitor, partial curve, poor fit]",
O=C(c1ccccc1)c1ccc2nc(-c3ccc(NC(=O)c4ccccc4F)cc3)[nH]c2c1,,inactive: -25%
